Reference: PubChem BioAssay AID445 (National Center for Advancing Translational Sciences (NCATS), 2006)
The other results are listed elsewhere or left out. Further columns of the screen follow, without active or inactive calls. Most of these compounds were active or inconclusive in the main read-out, so they are no random draw. Potencies come from curve fits of mixed quality, noted in brackets.

Assay: IkB Signaling
Details: ABC-DLBCL IkBa-CBG/CBR dual luciferase ratio (green luciferase fused to IkBa over red control in OCI-Ly3 lymphoma cells), 4 h; measured here: control luc red channel unless noted
Source text: NIH Molecular Libraries Screening Centers Network [MLSCN]
NIH Chemical Genomics Center [NCGC]
Nuclear factor kappa-B (NF-kappa-B) plays an important role in normal B cell development and survival. Diffuse large B cell lymphoma (DLBCL) is the most commonly observed type of non-Hodgkin's lymphoma. Gene expression analysis has identified an activated B cell-like subtype of DLBCL (ABC-DLBCL) which expresses known NF-kappa-B target genes. […] However, targets upstream of IKK have been largely unexplored and so nodes upstream of IKK in the NF-kappa-B pathway remain untested due to the lack of chemical probes.
A cell-sensor assay for I-kappa-B-alpha stabilization was developed with NIH investigator Dr. R. Eric Davis in Dr. Louis M. Staudt's laboratory. The assay uses green (CBG68) and red (CBR) emitting beetle luciferases [Chroma-Glo(TM) developed by Promega Corp.] where the green luciferase is fused to I-kappa-B-alpha and the red luciferase is present in its native state. Both luciferase genes are stably present in the OCI-Ly3 human ABC DLBCL cell line, but their expression is under the control of tetracycline-inducible promoters. Following the addition of doxycycline to induce expression of the luciferases, the green luminescence in control cultures rises only slowly because the CBG fusion partner I-kappa-B-alpha is targeted by IKK activity for rapid degradation. In contrast, green luminescence rises rapidly in the presence of proteasome inhibitors or IKK inhibitors. The rise in red luminescence of CBR is not affected by proteasome or IKK inhibitors, and serves as normalization for cell number and nonspecific effects. Compounds were screened as a concentration-titration series that ranged from 57 uM to 0.7 nM.
NCGC Assay Protocol Summary:
Cells were seeded in 1536-well plates at 5000 cells/3ul in IMDM medium containing 0.5% FBS, w/o phenol red, L-glutamine, 25 mM HEPES, 3 mg/ml sodium bicarbonate. After centrifugation for 1 min. at 1000 rpm, 23 nl of compounds or DMSO were delivered to each well using a pin tool. Then 1ul 80ng/ml doxycycline was dispensed into white solid 1536-well plates and the plates were incubated at 37C/5% C02 in a cell incubator for 4 hrs. Then 4 ul Chroma-Glo luminescent substrate mix (Promega) was added to each well. The plate was incubated at R.T. for 10-15 min. The plates were measured on a ViewLux plate reader for green luminescence (540/20 nm filter) and red luminescence (618/8 nm filter). The green and red luminescent signals were corrected for red and green luminescence filter overlap using previously determined filter calibration constants (determined using the procedure outlined in the Promega Technical Manual). The %Activity was determined from the ratio of corrected green/red luminescent values. Green luminescent and ratio %Activity was determined by normalizing to the difference in signal between basal cells (0% Activity) and cells incubated with 10 uM of the proteasome inhibitor MG-132 (100% Activity). Red luminescent %Activity was normalized to the difference between red luminesence in basal cells (0%Activity) and zero luminescence (-100% Activity).
Concentration-response curves were fitted to the signals arising from the green luminescence (I-kappa-B-alpha-luciferase fusion; IkB-luc) and the red luminescence (unfused luciferase; luc) as well as the calculated ratio. The concentration-effect curves were then classified based on curve quality (r2), response magnitude and degree of measured activity. Compounds were then categorized based on their concentration-response curves for all three datasets (Ikb-luc, luc and ratio).
Keywords: IKK, I-kappa-B, IkB, IkBa, cytotoxicity, luminescence, MLSMR, MLSCN, NIH Roadmap, qHTS, NCGC

| Structure (SMILES) | AC50 |
| --- | --- |
| CCOC(=O)c1ccc(NC(=O)/C(C#N)=C/c2ccc(OC)cc2)cc1 | 1 µM [falling, partial curve] |
| CCCCc1nn2c(=O)cc(COC(=O)c3cccc(NC(=O)CCc4ccccc4)c3)nc2s1 | 7.94 µM [falling, partial curve] |
| O=S(=O)(NCc1nc2cccnc2n1Cc1ccccc1)c1ccc2c(c1)CCCC2 | 39.8 µM [falling, single point] |
| COc1ccc(NC(=O)c2ccc3nc(CCc4ccccc4)oc3c2)c(OC)c1 | 0.398 µM [rising, full curve, poor fit] |
| Cc1ccccc1NC(=O)N1CCc2c(sc3c2CCCC3)C1c1ccccc1 (stereo not given) | 3.16 µM [falling, full curve] |
| CCCCCn1cc2c(c1-c1ccc(Br)cc1)c(=O)n(C)c(=O)n2C | 25.1 µM [falling, partial curve] |
| COc1ccc(OC)c(NC(=O)c2cc3cc(C)ccc3n2C)c1 | 20 µM [falling, single point] |
| COc1cccc(NC(=O)Cn2nnc(-c3nc(-c4ccccc4)no3)c2N)c1 | 10 µM [falling, partial curve] |
| CCSc1nnc(NC(=O)CSc2ncccn2)s1 | 10 µM [falling, partial curve] |
| CCOc1ccc(C(=O)c2cn(CC(=O)Nc3ccc(F)cc3)c3cc4c(cc3c2=O)OCO4)cc1 | 2 µM [falling, full curve] |
| CCOc1ccccc1CNC(=O)CCCn1ncn2c(cc3occc32)c1=O | 31.6 µM [falling, single point] |
| Cc1nn(CC(=O)Nc2ccccc2C(F)(F)F)c(=O)c2cccn12 | 25.1 µM [falling, partial curve] |
| COC(=O)C1=C(C)Nc2nc(-c3ccccc3)nn2C1c1ccc(C)o1 (stereo not given) | 15.8 µM [falling, partial curve] |
| Cc1ccccc1NC(=O)Nc1nnc(N2CCCCCC2)s1 | 31.6 µM [falling, single point] |
| Cc1cc(C)c(C)c(OCC(=O)Nc2ccc(S(=O)(=O)Nc3nc(C)cc(C)n3)cc2)c1 | 7.94 µM [falling, partial curve, poor fit] |
| O=C(CS(=O)CC(=O)N(CC(=O)NC1CCCC1)C1CCCCC1)Nc1ccc(F)cc1 (stereo not given) | 15.8 µM [falling, partial curve] |
| O=C(CSC1=Nc2ccccc2N=C(c2ccc(F)cc2)C1)Nc1cccc(C(F)(F)F)c1 | 39.8 µM [falling, single point] |
| CCc1ccc(NC(=O)CC2C(=O)N(c3cccc(C)c3)C(=O)N2CCC(C)C)cc1 (stereo not given) | 15.8 µM [falling, partial curve] |
| COc1ccc2c(c1)c(C(O)CN1CCN(Cc3ccc4c(c3)OCO4)CC1)c(C)n2C (stereo not given) | 15.8 µM [falling, partial curve] |
| CCOC(=O)C1CCCN(C(=O)C2CCN(S(=O)(=O)c3c(C)noc3/C=C/c3ccccc3F)CC2)C1 (stereo not given) | 25.1 µM [falling, single point] |

| Structure (SMILES) | AC50 |
| --- | --- |
| CCOC(=O)c1c(C)oc2c(F)c(F)c(F)c(F)c2c1=O | 20 µM [falling, single point] |
| COc1ccc(-c2noc(CCC(=O)NCC3CCN(Cc4cccc(C)c4)CC3)n2)cc1 | 12.6 µM [falling, partial curve] |
| O=C1NCCCc2c1oc1ccc(O)cc21 | 15.8 µM [falling, partial curve] |
| COc1ccc2nc(SCC(=O)Nc3ccc4c(c3)OCCO4)[nH]c2c1 | 15.8 µM [falling, partial curve] |
| COc1ccc(CNC(=O)CN(c2ccc(C(C)C)cc2)S(=O)(=O)c2c(C)nn(C)c2C)cc1 | 12.6 µM [falling, partial curve] |
| COc1ccc(OC)c(Nc2cc(-c3ccccc3)nc(N)n2)c1 | 3.98 µM [rising, full curve] [measured here: IkB-luc green channel] |
| Cc1ccc(S(=O)(=O)N2CCCc3cc(NS(=O)(=O)c4cc(F)ccc4F)ccc32)cc1 | 39.8 µM [falling, single point] |
| O=C(NCCc1ccccc1)c1cnc2sccn2c1=O | 15.8 µM [falling, partial curve] |
| CCOC(=O)c1ccc(N2C(=O)c3n[nH]c(-c4ccco4)c3C2c2ccc(OCC)cc2)cc1 (stereo not given) | 25.1 µM [falling, single point] |
| CCCC(=O)Nc1cc(C(=O)NCc2ccccc2)ccc1S(=O)(=O)c1ccc(Cl)cc1 | 2.51 µM [falling, partial curve] |
| O=C(CSc1nc2c(oc3ccccc32)c(=O)n1-c1ccccc1)Nc1ccccc1F | 0.126 µM [falling, full curve, poor fit] |
| CCc1ccc(OCc2cc(=O)n3c4c(sc3n2)CCCC4)cc1 | 6.31 µM [rising, partial curve, poor fit] |
| COc1cccc(N2CCN(C(=O)C3Cc4ccccc4N3C(C)=O)CC2)c1 (stereo not given) | 25.1 µM [falling, single point] |
| O=C(C1CCC1)N1CCCc2cc(S(=O)(=O)N3CCN(c4ccccc4)CC3)ccc21 | 39.8 µM [falling, single point] |
| COc1ccc2c(C)nc(Nc3nc(C)cc(=O)[nH]3)nc2c1 | 39.8 µM [falling, single point] |
| Cc1cccc(-c2nc3ccccc3n2Cc2ccccc2)c1 | 20 µM [falling, single point] |
| CC(C)OC(=O)C(C(=O)C(F)(F)F)c1cc(NS(=O)(=O)c2ccc3c4c(cccc24)C(=O)N3)ccc1O (stereo not given) | 12.6 µM [falling, partial curve] |
| CCOC(=O)N1CCc2c(sc(NCc3cccc(F)c3)c2C(=O)Nc2ccc(OC)cc2OC)C1 | 10 µM [falling, partial curve] |
| COc1ccc(Cl)cc1NC(=O)Cn1c(=O)n(Cc2cccs2)c(=O)c2cccnc21 | 10 µM [falling, partial curve] |
| CC(=O)Nc1ccc(-n2c(CCC(=O)O)ccc2-c2ccc(Br)cc2)cc1 | 25.1 µM [falling, single point] |

As entered above.
COc1ccc(CNC(=O)CN(c2ccc(C(C)C)cc2)S(=O)(=O)c2c(C)nn(C)c2C)cc1 – AC50: 12.6 µM [falling, partial curve]
O=C1NCCCc2c1oc1ccc(O)cc21 – AC50: 15.8 µM [falling, partial curve]
